According to the supplement of paper PMC10849652:
The other results are listed elsewhere or left out.

Amino acid sequences for entries named in this document (tags omitted). A change or cut given only in a name is not applied to a line headed by its entry.
UniProt Q96RE7: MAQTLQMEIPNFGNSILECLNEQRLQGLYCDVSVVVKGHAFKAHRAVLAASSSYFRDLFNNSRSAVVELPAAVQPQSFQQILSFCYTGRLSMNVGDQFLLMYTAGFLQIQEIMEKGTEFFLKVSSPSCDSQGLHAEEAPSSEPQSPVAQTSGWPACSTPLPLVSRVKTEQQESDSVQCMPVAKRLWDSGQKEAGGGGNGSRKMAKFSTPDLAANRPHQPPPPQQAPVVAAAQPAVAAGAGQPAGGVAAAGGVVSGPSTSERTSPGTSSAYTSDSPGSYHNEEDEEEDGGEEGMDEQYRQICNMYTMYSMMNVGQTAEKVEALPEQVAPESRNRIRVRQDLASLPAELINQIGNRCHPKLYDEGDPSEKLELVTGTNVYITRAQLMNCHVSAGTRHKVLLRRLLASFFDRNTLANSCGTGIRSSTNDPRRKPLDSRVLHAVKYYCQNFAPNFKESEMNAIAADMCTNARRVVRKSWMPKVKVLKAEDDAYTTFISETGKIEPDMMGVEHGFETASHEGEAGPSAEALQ
UniProt Q9Y2A7: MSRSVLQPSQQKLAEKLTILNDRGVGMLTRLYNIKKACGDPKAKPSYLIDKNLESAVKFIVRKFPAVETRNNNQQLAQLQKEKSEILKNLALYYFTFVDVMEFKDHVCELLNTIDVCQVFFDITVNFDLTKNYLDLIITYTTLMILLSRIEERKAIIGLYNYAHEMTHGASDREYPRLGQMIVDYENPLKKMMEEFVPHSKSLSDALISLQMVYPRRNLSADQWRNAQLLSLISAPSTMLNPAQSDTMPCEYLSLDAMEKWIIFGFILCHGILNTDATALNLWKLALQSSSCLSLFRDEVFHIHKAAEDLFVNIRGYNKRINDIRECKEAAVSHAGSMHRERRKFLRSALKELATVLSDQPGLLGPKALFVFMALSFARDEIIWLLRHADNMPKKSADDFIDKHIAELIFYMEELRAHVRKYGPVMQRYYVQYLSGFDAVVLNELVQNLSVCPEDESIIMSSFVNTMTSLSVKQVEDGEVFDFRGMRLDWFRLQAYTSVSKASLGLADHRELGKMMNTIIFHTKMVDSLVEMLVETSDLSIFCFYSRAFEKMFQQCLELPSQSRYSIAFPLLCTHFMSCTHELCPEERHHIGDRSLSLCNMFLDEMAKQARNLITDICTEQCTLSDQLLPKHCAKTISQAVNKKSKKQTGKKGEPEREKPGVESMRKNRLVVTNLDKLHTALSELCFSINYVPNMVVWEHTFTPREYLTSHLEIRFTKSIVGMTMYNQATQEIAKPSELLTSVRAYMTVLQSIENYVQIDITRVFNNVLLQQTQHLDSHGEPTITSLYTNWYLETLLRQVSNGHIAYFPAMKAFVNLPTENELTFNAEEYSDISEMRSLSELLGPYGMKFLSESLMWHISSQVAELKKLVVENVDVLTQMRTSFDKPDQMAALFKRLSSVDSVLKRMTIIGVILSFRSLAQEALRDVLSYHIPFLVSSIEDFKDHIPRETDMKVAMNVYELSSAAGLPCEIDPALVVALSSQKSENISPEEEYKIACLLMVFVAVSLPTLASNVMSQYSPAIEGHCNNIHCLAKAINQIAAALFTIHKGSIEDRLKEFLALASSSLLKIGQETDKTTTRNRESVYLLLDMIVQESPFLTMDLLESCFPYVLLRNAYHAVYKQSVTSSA
UniProt P55209: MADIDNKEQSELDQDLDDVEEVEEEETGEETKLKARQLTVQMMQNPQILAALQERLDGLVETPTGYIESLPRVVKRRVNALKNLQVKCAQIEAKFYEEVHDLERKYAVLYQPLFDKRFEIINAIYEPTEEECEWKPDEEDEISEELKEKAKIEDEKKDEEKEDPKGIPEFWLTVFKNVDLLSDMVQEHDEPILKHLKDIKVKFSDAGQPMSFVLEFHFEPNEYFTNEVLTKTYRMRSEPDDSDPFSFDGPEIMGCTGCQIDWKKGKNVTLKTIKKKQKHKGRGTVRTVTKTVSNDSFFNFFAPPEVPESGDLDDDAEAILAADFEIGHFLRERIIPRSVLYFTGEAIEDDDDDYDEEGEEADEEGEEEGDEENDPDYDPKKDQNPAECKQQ
UniProt Q9Y6Q9, whole entry, looked up: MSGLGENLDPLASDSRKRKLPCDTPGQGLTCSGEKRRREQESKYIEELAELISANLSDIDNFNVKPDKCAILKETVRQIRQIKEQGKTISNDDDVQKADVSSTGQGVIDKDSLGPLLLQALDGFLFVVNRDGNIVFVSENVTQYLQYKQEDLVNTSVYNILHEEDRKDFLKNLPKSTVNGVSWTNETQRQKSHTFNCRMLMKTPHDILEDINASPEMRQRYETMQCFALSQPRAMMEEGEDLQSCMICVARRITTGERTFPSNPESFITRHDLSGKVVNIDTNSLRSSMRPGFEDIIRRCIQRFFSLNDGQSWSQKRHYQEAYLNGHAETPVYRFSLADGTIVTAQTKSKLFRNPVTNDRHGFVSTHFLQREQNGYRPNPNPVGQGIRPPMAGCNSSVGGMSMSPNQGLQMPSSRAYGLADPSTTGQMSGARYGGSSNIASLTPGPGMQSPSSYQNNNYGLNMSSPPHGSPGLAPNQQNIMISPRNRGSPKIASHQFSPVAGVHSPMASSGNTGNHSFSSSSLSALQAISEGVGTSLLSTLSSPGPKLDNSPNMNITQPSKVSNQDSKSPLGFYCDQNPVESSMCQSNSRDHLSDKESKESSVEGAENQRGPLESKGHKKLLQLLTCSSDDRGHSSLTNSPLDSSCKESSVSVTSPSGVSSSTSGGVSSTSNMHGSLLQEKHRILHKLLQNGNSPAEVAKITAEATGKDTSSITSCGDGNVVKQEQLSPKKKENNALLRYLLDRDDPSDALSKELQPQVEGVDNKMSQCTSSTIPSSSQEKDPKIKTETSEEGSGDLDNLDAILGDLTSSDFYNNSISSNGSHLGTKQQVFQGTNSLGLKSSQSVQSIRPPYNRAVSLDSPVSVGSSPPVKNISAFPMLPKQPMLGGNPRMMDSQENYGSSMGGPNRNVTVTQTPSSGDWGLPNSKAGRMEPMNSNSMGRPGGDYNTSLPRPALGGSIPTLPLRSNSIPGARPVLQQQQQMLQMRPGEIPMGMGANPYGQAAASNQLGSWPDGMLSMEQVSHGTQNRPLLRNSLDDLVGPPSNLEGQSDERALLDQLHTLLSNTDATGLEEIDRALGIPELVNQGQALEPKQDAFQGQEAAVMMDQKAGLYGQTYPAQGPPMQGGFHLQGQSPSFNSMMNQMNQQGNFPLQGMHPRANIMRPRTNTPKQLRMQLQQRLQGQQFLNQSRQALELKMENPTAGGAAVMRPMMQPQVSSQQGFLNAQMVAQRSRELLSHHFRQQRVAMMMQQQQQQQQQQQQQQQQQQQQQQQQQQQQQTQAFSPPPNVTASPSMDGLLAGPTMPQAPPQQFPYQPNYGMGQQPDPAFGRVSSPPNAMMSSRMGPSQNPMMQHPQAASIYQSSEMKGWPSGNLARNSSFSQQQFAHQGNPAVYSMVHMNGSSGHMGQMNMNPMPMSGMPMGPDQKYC
UniProt Q9BPX3, whole entry, looked up: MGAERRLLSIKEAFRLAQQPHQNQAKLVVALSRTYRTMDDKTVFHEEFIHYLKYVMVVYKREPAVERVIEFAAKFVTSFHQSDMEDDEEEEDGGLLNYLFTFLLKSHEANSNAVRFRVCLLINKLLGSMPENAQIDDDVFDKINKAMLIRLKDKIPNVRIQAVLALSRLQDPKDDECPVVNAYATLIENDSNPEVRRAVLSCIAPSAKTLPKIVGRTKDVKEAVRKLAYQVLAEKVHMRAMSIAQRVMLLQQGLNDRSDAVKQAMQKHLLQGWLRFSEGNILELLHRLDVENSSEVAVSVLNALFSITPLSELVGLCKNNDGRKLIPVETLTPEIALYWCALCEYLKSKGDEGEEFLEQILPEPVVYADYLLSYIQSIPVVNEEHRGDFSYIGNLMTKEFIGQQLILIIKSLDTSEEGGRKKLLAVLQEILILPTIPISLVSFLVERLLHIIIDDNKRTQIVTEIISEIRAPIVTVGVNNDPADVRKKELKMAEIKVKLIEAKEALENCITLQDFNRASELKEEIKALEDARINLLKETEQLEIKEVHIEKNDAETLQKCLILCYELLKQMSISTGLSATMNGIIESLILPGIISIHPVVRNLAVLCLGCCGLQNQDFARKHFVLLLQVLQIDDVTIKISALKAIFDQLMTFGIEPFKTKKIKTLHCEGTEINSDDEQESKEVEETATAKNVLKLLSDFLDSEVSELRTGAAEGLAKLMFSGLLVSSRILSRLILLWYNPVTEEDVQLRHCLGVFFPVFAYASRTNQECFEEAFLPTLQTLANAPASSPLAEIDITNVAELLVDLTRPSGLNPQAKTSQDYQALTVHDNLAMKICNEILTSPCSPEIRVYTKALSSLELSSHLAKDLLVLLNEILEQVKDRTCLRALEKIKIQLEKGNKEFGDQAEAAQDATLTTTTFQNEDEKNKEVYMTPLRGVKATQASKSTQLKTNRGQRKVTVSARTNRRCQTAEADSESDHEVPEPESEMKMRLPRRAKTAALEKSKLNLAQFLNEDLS
UniProt O95167, whole entry, looked up: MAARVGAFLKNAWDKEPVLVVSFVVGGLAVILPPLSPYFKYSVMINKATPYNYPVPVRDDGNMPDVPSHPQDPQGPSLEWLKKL

Legend:
Experiment in all cases: log2 fold change, soluble protein after heating vs DMSO (PISA); higher = thermal stabilisation; K562 cells, 10 uM, 30 min; active = over 0.2 and 3.5 SD of the protein, either way, in both replicates (recomputed)
[1] = compound: CC1=C(C=C(C=C1)NC(=O)C2=CC(=CC=C2)C(C)(C)C#N)NC3=CC4=C(C=C3)N=CN(C4=O)C
Method in brief: (§1)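 Soluble protein was defined as the supernatant after 21,000xg for 90 min. It came from K562 cells at 2×10^6 cells/mL given 10 μM compound for 30 min, heated in aliquots for 3 min across 48°C-58°C, pooled, and extracted in PBS with 0.5% NP-40 at 4°C, and was quantified by TMTpro 16plex LC-MS/MS with equalised channel sums. Thermal stability against control samples, from duplicates, is reported as log2 fold change.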

[2] = compound: CC1=C(C=C(C=C1)NC(=O)C2=CC(=CC=C2)N(C)C)NC(=O)C3=CC=C(C=C3)O
Method in brief: as §1

[3] = compound: CC1=CC=C(C=C1)SC2=C3C=C(SC3=CN=C2)C(=O)N
Method in brief: as §1

[4] = compound: CC1=NC(=CC=C1)C2=C(N=C(N2)C(C)(C)C)C3=CC4=NC=CN=C4C=C3
Method in brief: as §1

[5] = compound: CCCCN(Cc1ccc(C(=O)NO)cc1)C(=O)Nc1ccccc1 [Nexturastat A]
Method in brief: as §1

[6] = compound: CCCS(=O)(=O)Nc1ccc(F)c(C(=O)c2c[nH]c3ncc(-c4ccc(Cl)cc4)cc23)c1F [vemurafenib]
Method in brief: as §1

[7] = compound: CCCS(=O)(=O)Nc1ccc(F)c(C(=O)c2c[nH]c3ncc(Cl)cc23)c1F
Method in brief: as §1

[8] = compound: CCCc1cc(C)[nH]c(=O)c1CNC(=O)c1cc(-c2ccnc(N3CCN(C)CC3)c2)cc2c1cnn2C(C)C
Method in brief: as §1

[9] = compound: CCN(CC)Cc1ccc2cc(COC(=O)Nc3ccc(C(=O)NO)cc3)ccc2c1 [givinostat]
Method in brief: as §1

[10] = compound: CCN(CCCOc1ccc2c(Nc3cc(CC(=O)Nc4cccc(F)c4)[nH]n3)ncnc2c1)CCOP(=O)(O)O [barasertib]
Method in brief: as §1

[11] = compound: CC[C@@H]1C(=O)N(C)c2cnc(Nc3ccc(C(=O)NC4CCN(C)CC4)cc3OC)nc2N1C1CCCC1
Method in brief: as §1

[12] = compound: CC[C@@H]1C(=O)N(C)c2cnc(Nc3ccc(C(=O)N[C@H]4CC[C@H](N5CCN(CC6CC6)CC5)CC4)cc3OC)nc2N1C(C)C [volasertib]
Method in brief: as §1

[13] = compound: CC[C@H](C)N1C=C(C2=C(C=C(C=C21)C3=CN=C(C=C3)N4CCNCC4)C(=O)NCC5=C(C=C(NC5=O)C)C)C
Method in brief: as §1

[14] = compound: CC[C@H](C)[C@@H](C(=O)N[C@@H]([C@@H](C)O)C(=O)N[C@@H](CC(C)C)C(=O)[C@]1(CO1)C)NC(=O)[C@H]([C@@H](C)CC)N(C)C(=O)C [epoxomicin]
Method in brief: as §1

[15] = compound: CCn1cc(-c2ccnc3[nH]c(-c4cccc(CN(C)C)c4)cc23)c(-c2ccc(NC(=O)N(C)C)cc2)n1
Method in brief: as §1

[16] = compound: CN(C)CC(=O)Nc1ccc2[nH]c(=O)c3ccccc3c2c1
Method in brief: as §1

[17] = compound: CN1C2=C(C3=C1C(=O)N(N=C3)CC4=CC(=CC=C4)N)SC(=C2)S(=O)C
Method in brief: as §1

[18] = compound: CN1CCC(CNc2ccc3ncc(-c4cccc(OC(F)(F)F)c4)n3n2)CC1
Method in brief: as §1

[19] = compound: CCn1c(C(=O)N(C2CC2)C2CC2)cc2c3c(ncn3C)c(Nc3cc(C)n(C)n3)nc21
Method in brief: as §1

[20] = compound: CN(CCOC1=CC=C(C=C1)C[C@H]2C(=O)NC(=O)S2)C3=CC=CC=N3 (racemic) [rosiglitazone]
Method in brief: as §1

Measured: log2 fold change

NACC1 (UniProt Q96RE7)
inactive: [1] -0.043 | [2] -0.012 | [3] 0.048 | [4] 0.164 | [5] -0.036 | [6] 0.154 | [7] 0.064 | [8] 0.025 | [9] 0.208 | [10] 0.115 | [11] -0.32 | [13] 0.112 | [14] 0.002 | [15] -0.022 | [16] 0.033 | [17] 0 | [18] -0.259
active: [12] -0.616

NCKAP1 isoform 2 (UniProt Q9Y2A7)
active: [12] -0.25
inactive: [1] 0.039 | [2] 0.009 | [3] 0.004 | [4] 0.033 | [5] 0.02 | [6] 0.036 | [7] 0.015 | [8] 0.064 | [9] 0.021 | [10] -0.009 | [11] 0.002 | [13] 0.031 | [14] 0.01 | [15] -0.036 | [16] 0.043 | [17] -0.042 | [18] -0.027

NAP1L1 (UniProt P55209)
active: [12] -0.237
inactive: [1] 0.042 | [2] 0.005 | [3] -0.002 | [4] 0.035 | [5] -0.003 | [6] 0.04 | [7] 0.011 | [8] 0.028 | [9] -0.08 | [10] 0.061 | [11] -0.112 | [13] 0.005 | [14] 0.048 | [15] -0.008 | [16] 0.013 | [17] 0.003 | [18] -0.038

NAMPT (UniProt C9JF35)
inactive: [1] -0.029 | [2] -0.068 | [3] -0.072 | [4] 0.027 | [5] -0.031 | [7] -0.082 | [8] -0.337 | [9] -0.052 | [10] -0.092 | [11] 0.087 | [12] -0.083 | [13] -0.029 | [14] -0.071 | [19] -0.039 | [20] 0.1 | [17] -0.128

NCOA3 (UniProt Q9Y6Q9)
inactive: [1] 0.078 | [2] -0.023 | [3] 0.055 | [4] 0.005 | [5] 0.097 | [6] 0.079 | [7] -0.05 | [9] 0.081 | [10] 0.078 | [11] -0.157 | [12] -0.317 | [13] 0.013 | [14] -0.138 | [19] -0.123 | [15] -0.062 | [16] -0.005 | [20] -0.06 | [18] 0.031

NCAPG (UniProt Q9BPX3)
active: [12] -0.506
inactive: [1] 0.086 | [2] -0.074 | [3] 0.027 | [4] 0.038 | [5] 0.011 | [6] 0.056 | [7] 0.091 | [8] 0.064 | [9] 0.081 | [10] 0.064 | [11] -0.105 | [13] 0.059 | [14] 0.023 | [15] 0.003 | [16] 0.04 | [17] 0.004 | [18] 0.092

NDUFA3 (UniProt O95167)
inactive: [1] -0.033 | [2] 0.019 | [3] 0.046 | [5] 0.022 | [6] -0.069 | [7] -0.02 | [8] -0.033 | [9] -0.069 | [10] 0.026 | [11] -0.038 | [12] -0.177 | [13] -0.082 | [14] 0.236 | [19] -0.131 | [15] -0.047 | [16] 0.092 | [20] 0.009 | [17] 0.056 | [18] -0.094

NCK1 (UniProt P16333)
inactive: [1] 0.166 | [2] -0.068 | [3] 0.208 | [4] 0.102 | [5] 0.12 | [6] 0.031 | [7] 0.116 | [8] 0.08 | [9] 0.211 | [10] 0.189 | [12] -0.306 | [13] 0.109 | [14] -0.053 | [16] 0.044 | [17] 0.027

NDUFAB1 (UniProt O14561)
inactive: [1] 0.03 | [2] -0.08 | [4] 0.049 | [5] -0.094 | [6] 0.233 | [8] 0.005 | [9] -0.006 | [10] -0.005 | [11] -0.085 | [13] 0 | [14] 0.138 | [19] -0.057 | [15] 0.183 | [16] 0.205 | [20] -0.03 | [18] 0.201

Reprinted from the entries so far (two entries):
NCOA3 (UniProt Q9Y6Q9)
inactive: [1] 0.078 | [2] -0.023 | [3] 0.055 | [4] 0.005 | [5] 0.097 | [6] 0.079 | [7] -0.05 | [9] 0.081 | [10] 0.078 | [11] -0.157 | [12] -0.317 | [13] 0.013 | [14] -0.138 | [19] -0.123 | [15] -0.062 | [16] -0.005 | [20] -0.06 | [18] 0.031

NCAPG (UniProt Q9BPX3)
active: [12] -0.506
inactive: [1] 0.086 | [2] -0.074 | [3] 0.027 | [4] 0.038 | [5] 0.011 | [6] 0.056 | [7] 0.091 | [8] 0.064 | [9] 0.081 | [10] 0.064 | [11] -0.105 | [13] 0.059 | [14] 0.023 | [15] 0.003 | [16] 0.04 | [17] 0.004 | [18] 0.092
